Data from publication PMC13043894.
Positions count from the first letter of the chain named. Numbers in names are those of the source. No constants are given. Whether binding was seen depends on the method and setting. In cells and extracts the contact can be indirect. Some results given as binding are weak or reduced against the parent protein; the word gives no strength. For some assays here: Sequences can lack the tags named with a protein. Blank lines part the entries; values can stand above or below the binder they belong to.

By UniProt entry, the sequences of proteins in these tests, tags left out.
UniProt P34077: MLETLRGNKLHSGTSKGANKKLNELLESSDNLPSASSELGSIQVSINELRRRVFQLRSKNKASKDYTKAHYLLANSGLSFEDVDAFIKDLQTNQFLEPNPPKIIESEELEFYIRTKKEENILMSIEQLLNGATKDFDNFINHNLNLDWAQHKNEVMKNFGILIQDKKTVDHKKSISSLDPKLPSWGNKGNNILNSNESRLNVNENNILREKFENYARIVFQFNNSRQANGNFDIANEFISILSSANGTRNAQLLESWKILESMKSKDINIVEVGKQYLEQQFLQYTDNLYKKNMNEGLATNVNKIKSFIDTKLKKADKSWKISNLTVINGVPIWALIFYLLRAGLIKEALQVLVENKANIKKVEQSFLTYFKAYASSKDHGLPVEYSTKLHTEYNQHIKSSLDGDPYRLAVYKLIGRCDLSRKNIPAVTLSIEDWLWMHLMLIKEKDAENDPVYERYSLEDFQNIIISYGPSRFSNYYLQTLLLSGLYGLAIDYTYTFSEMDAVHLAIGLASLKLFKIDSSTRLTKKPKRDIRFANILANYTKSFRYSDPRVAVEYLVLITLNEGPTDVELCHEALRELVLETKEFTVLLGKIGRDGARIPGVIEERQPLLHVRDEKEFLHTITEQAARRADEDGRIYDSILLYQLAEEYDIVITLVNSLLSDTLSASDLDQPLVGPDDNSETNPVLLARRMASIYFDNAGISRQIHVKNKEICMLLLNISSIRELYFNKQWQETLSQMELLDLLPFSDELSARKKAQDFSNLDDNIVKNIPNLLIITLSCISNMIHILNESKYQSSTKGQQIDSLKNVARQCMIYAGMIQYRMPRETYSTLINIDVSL

Assays:
[1] = molecular target: Nic96-GFP (S. cerevisiae) (UniProt P34077); assay: co-IP; Nic96-GFP precipitated from yeast lysates on GFP-Trap (GFP nanobody) agarose beads, 2 h at 4 °C; lysis buffer 20 mM Tris-Cl pH 8.0, 150 mM NaCl, 5 mM MgCl2, 10% glycerol, 0.5% Triton X-100; immunoblot; cells with untagged NIC96 as control
[2] = molecular target: T1, brr6^L145E (S. cerevisiae) (UniProt P53062); assay: co-IP; yeast cells expressing BRL1 and BRR6 constructs lysed, precipitation with GFP-binder, immunoblot; which partner carried GFP is not told
T1 sequence: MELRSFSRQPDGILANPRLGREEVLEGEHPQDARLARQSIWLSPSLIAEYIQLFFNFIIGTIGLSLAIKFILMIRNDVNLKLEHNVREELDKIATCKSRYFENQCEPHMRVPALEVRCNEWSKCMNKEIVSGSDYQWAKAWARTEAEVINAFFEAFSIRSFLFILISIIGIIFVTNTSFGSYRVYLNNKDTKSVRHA

[3] = molecular target: T2, Brr6 (construct of the immunoprecipitation of Fig. EV1F) (S. cerevisiae) (UniProt P53062); assay: as above
T2 sequence: T1 sequence with E145L

B1: Brr6^1-53–Brl1^300-471-HA (protein, UniProt P53062 1-53; P38770 300-471)
chain: MELRSFSRQPDGILANPRLGREEVLEGEHPQDARLARQSIWLSPSLIAEYIQLLFLNAITTVVIFSFILSFIIALQKDLKSTWEQRKHELQYESRICQEQYLTNRCNQTPGLPALGEQCAIWKQCMDRNNDIFFRARSTLSAKLFGDIINSFIDPLNWKTLFVIFCGVITWCFSSNFLLGFVRAKSYYGNGIKTYPLPSSPKSPTSEETHSSMTASGEDSHLLKQ
binding [1]: no binding

B2: Brl1 (construct of the immunoprecipitation of Fig. EV1F) (protein, UniProt P38770 1-471)
chain: MESFENLSIRDSFTSGMEHVDEELGGLSDLSISKQGPTLSPQLINRFMPHFPSSPSPLRNTLDFSAAKADEEEDDRMEIDEVDDTSFEEEYNNEPIETHTEATENAVVEEIEATPEERQKQEKNESQDQSVEEVENIVSPHRSTVIKALLSPTDLGVAAATKVEGVVPLPPSANQDDNESSNNNAEGEDIIRNEEVEDEIKSSLGNHKSSQYANAFDSEIIKRELRSRSKYQPIQVSFNTHNYFYSDKDGIKTYSLTKPNHNKIDEFYDQNEAFKLPKPWSPNSHPASRASYALMSYLQLFLNAITTVVIFSFILSFIIALQKDLKSTWEQRKHELQYESRICQEQYLTNRCNQTPGLPALGEQCAIWKQCMDRNNDIFFRARSTLSAKLFGDIINSFIDPLNWKTLFVIFCGVITWCFSSNFLLGFVRAKSYYGNGIKTYPLPSSPKSPTSEETHSSMTASGEDSHLLKQ
binding [2]: binds | binding [3]: binds

B4: Brl1-HA (protein, UniProt P38770 1-471)
chain: B2 chain
binding [1]: binds

B6: Brl1 (untagged, overexpressed from pAdh1-BRL1 or pGal1-BRL1) (protein, UniProt P38770 1-471)
chain: B2 chain
binding [1]: binds

Other lines, results leading:

binding [1]: binds
B3: endogenous Brl1 (protein, UniProt P38770 1-471)
chain: B2 chain

binding [2]: binds | binding [3]: binds
B5: brl1^F391E (protein, UniProt P38770 1-471)
chain: B2 chain with F391E
